Assay results: patent publication US9127233B2, “Device and method for solubilizing, separating, removing and reacting carboxylic acids in oils, fats, aqueous or organic solutions by means of micro-or nanoemulsification” (priority 2010, dated 2015)
Structures can show the parent of a compound that is named as a salt. At least one peptide structure holds a part that was inferred or is arguable (an end, a ring closure or a residue). Where a SMILES comes first, the peptide text is derived from it.

How the values were obtained:
[1] = pH of aqueous solution of solubilizing compound mixed with oleic acid; format: physicochemical; settings: solubilizing compound in water with 0.833 mol equivalents of oleic acid
[2] = Dynamic laser light scattering (DLS) of oleic acid micro-/nanoemulsions; format: physicochemical; settings: percentage of the peak in the sample

| pH [1] | Part [2] [%] | pH ([1]; listed as Arq-Gly-Asp (RGD)-basic) | Structure (SMILES) |
| --- | --- | --- | --- |
| 12.1 | – | – | NCC(=O)N[C@@H](Cc1c[nH]cn1)C(=O)O [Gly-His] (H-Gly-His-OH; N-terminus and C-terminus assumed) |
| 7.25 | 86.3 | – | NCC(=O)N[C@@H](Cc1ccccc1)C(=O)O [Gly-Phe, reference compound] (H-Gly-Phe-OH; N-terminus and C-terminus assumed) |
| 8.39 | 69.0 | – | N=C(N)NCCC[C@H](NC(=O)[C@@H](N)Cc1c[nH]cn1)C(=O)O [His-Arg] (H-His-Arg-OH; N-terminus and C-terminus assumed) |
| 11.93 | 89.9 | – | N=C(N)NCCC[C@H](NC(=O)[C@@H](N)CCCCN)C(=O)O [Lys-Arq acetate] (H-Lys-Arg-OH; N-terminus and C-terminus assumed) |
| 8.68 | 96.3 | – | C[C@@H](O)[C@H](N)C(=O)N[C@@H](CCCCN)C(=O)N1CCC[C@H]1C(=O)N[C@@H](CCCNC(=N)N)C(=O)O [Thr-Lys-Pro-Arq (Tuftsin)] (H-TKPR-OH; N-terminus and C-terminus assumed) |

Second part, the compound before the results:

| Structure (SMILES) | pH [1] | Part [2] [%] | pH ([1]; listed as Arq-Gly-Asp (RGD)-basic) |
| --- | --- | --- | --- |
| N=C(N)NCCC[C@H](N)C(=O)N[C@@H](CCC(N)=O)C(=O)O [Arg-Gln hydrochloride] (H-Arg-Gln-OH; N-terminus and C-terminus assumed) | 8.15 | – | – |
| N=C(N)NCCC[C@H](N)C(=O)N[C@@H](CCC(=O)O)C(=O)O [Arg-Glu] (H-Arg-Glu-OH; N-terminus and C-terminus assumed) | 8.83 | 97.7 | – |
| N=C(N)NCCC[C@H](N)C(=O)NCC(=O)N[C@@H](CC(=O)O)C(=O)O [Arg-Gly-Asp (RGD)] | 6.04 | 96.9 | 8.25 |
| C[C@H](NC(=O)[C@H](Cc1ccccc1)NC(=O)[C@@H](N)CCCNC(=N)N)C(=O)O [Arg-Phe-Ala acetate] (H-Arg-Phe-Ala-OH; N-terminus and C-terminus assumed) | 8.25 | 90.0 | – |
| N=C(N)NCCC[C@H](N)C(=O)N[C@@H](Cc1ccccc1)C(=O)O [Arg-Phe] | 8.39 | – | – |
| N=C(N)NCCC[C@H](NC(=O)CN)C(=O)O [Gly-Arg] (H-Gly-Arg-OH; N-terminus and C-terminus assumed) | 9.18 | – | – |
| N=C(N)NCCC[C@H](NC(=O)[C@H](Cc1ccc(O)cc1)NC(=O)CNC(=O)CN)C(=O)O [Gly-Gly-Tyr-Arg] (H-GGYR-OH; N-terminus and C-terminus assumed) | 8.57 | – | – |
